Laboratory results from patent US8367659B2, “Oxazinyl isoflavonoid compounds, medicaments and use” (Marshall Edwards, Inc., priority 2007, dated 2013).
At least one compound was matched to its structure with a doubt left.

Key:
T cells = test: T cell proliferation (ConA-stimulated mouse splenocytes, MTT); assay type: cell-based, Skh-1:HR 1 (hairless) mice; details: 10 μM, 3 days
Method: Male Skh-1:HR 1 (hairless) mice, approximately six weeks old were killed by cervical dislocation. Single cell suspensions were made from the spleen and erythrocytes were lysed in buffer (0.14 M NH4Cl, 17 mM Tris, pH 7.2). The remaining splenocytes were cultured in RPMI-1640 (Gibco) supplemented with 10% (v:v) FBS, 200 mM L-glutamine, penicillin/streptomycin and […] 2-mercaptoethanol. Splenocytes were added to quadruplicate wells containing either concanavalin A (ConA, Sigma-Aldrich—0.4 μg/well), LPS (Sigma-Aldrich—1 μg/well) or no mitogen, as well 10 μM of test compound in DMSO. Samples were analysed after 3 days incubation at 37° C. in 5% CO2 in air. Methylthiazoletetrazolium (MTT) is bioreduced by viable cells into a coloured formazan product that is soluble in DMSO. Thus the quantity of formazan product is directly proportional to the number of living cells in culture, and can be measured using a spectrophotometer at 570 nm. MTT was added to each well, incubated for a further 4 hrs and then colour developed with 0.04 N HCl in isopropanol. Culture supernatants were stored after collection at −80° C. and analysed by ELISA (BD Biosciences) for IFN-γ (a Th-1 cytokine) and for T cells alone, IL-6 (a Th-2 cytokine).

[1] = tested on: TXA2 synthesis in RA stimulated U937 cells; test: TXA2 synthesis in RA-stimulated U937 cells; assay type: cell-based, human; details: 100 μM
Method: U937 cells were thawed and resuspended in RPM1 and 10% FCS at 2×10^5 cells per ml. The cells were incubated in 5% CO2 at 37° C. and expanded in growing culture to at least 6.4×10^7 total cells. The cells were then resuspended in fresh medium and cultured with […] (RA) at 2×10^5 cells per ml for a further 3 days (72 h). RA treated cells were washed 2× in serum-free RPM and resuspended in serum-free medium at 5×10^6 cells per ml. The cells were aliquotted into Teflon tubes at 1 ml per tube. Working stock solutions of each test compound were prepared at 0.1 mM, 1 mM and 10 mM as described above. For each test compound at each working dilution, 10 μl was added to 1 ml cells to achieve a final concentration of 0 (DMSO alone), 1, 10, and 100 μM for each test compound. Cells were incubated in triplicate with each concentration of test compound for 15 min at 37° C. After 15 min pre-incubation, each 1 ml tube of cells received 5 μl of a […] solution of the calcium ionophore A23187 (to achieve 0.5 μM A23187). Incubation at 37° C. was continued for a further 30 min. After incubation, supernatants were collected by centrifugation at 2000 rpm for 10 min and stored at −20° C. until required for assay.

red blood cells (RBC) = test: Peroxyl radical (AAPH)-induced red blood cell lysis; assay type: cell-based
Method: Freshly collected heparinised venous blood (10 ml, on ice) was aliquotted into 1.8 ml sterile Eppendorf tubes and centrifuged for 10 minutes at 2600 rpm at 4° C. Plasma and buffy coat layers were removed (approximately […]) and packed red blood cells (RBC) were then washed by the addition of […], ice cold PBS. This washing procedure was repeated twice. Packed RBC were resuspended by the addition of 900 ml of ice-cold, sterile PBS (and termed RBC stock). RBC stocks were stored at 4° C. for a maximum of three days. All working suspensions of RBC were prepared fresh daily by diluting […] of RBC stock into 10 ml of ice-cold, sterile PBS and […] added to each well.
Stocks of AAPH were freshly prepared for individual experiments as follows. […] Turbidity of RBC suspensions were monitored using a Tecan microplate reader at 690 nm (37° C.) with gentle vortexing. Assays were performed in quadruplicate and readings were taken every 5 minutes over 5 hours. RBC lysis curves were constructed by plotting absorbance (mean of 4 readings) against time. Time to half-lysis was calculated by taking the highest absorbance reading (no lysis) and the lowest absorbance reading (maximum lysis). The sum of these two readings divided by two gave the absorbance at half-lysis. Simple regression analysis was used to calculate the time at which half-lysis absorbance occurred. […]

[2] = tested on: TNFα synthesis in human peripheral blood monocytes; test: Synthesis of TNFα by human monocytes stimulated with LPS; assay type: cell-based; details: FIGS. 1a, 1b
Method: Human peripheral blood monocytes were isolated from buffy coats by lyrnpboprep gradient separation of mononuclear cells followed by counter-current centrifugal elutriation (Demasi et al. 2000). Test compounds were dissolved in DMSO and added to fresh monocytes to achieve concentrations of 0, 10 and 100 μM. After 30 min, LPS was added to achieve a final concentration of 200 ng/mL. After 1 h, supernatants were removed and TNFα measured by ELISA previously described (Demasi et al. 2003). ANOVA followed by Newman-Keuls multiple comparisons test was used to examine differences between doses and the control values.

## Oc1ccc(C2=Cc3cc4c(cc3OC2)OCN(Cc2ccccc2)C4)cc1 [Compound 1, 4-(3-Benzyl-2,3,4,8-tetrahydrochromeno[6,7-e][1,3]oxazin-7-yl)phenol]
T cells
  effect on T cells: markedly and significantly immunosuppressive
[1]
  effect on TXA2 synthesis: inhibit TXA2 synthesis
Red blood cells (RBC)
  antioxidant activity, AAPH-induced time to half-lysis of red blood cells: delaying the AAPH-induced time to half-lysis
[2]
  effect on synthesis of TNFα: reduce the synthesis of TNFα
